From article PMC5374107 come the findings set out here.

Sequences of proteins named here, by UniProt entry; tags and fusion partners are left off. A change or cut given only in a name is not applied to a line headed by its entry. Residues count along the entry.
UniProt P05362, residues 28-532: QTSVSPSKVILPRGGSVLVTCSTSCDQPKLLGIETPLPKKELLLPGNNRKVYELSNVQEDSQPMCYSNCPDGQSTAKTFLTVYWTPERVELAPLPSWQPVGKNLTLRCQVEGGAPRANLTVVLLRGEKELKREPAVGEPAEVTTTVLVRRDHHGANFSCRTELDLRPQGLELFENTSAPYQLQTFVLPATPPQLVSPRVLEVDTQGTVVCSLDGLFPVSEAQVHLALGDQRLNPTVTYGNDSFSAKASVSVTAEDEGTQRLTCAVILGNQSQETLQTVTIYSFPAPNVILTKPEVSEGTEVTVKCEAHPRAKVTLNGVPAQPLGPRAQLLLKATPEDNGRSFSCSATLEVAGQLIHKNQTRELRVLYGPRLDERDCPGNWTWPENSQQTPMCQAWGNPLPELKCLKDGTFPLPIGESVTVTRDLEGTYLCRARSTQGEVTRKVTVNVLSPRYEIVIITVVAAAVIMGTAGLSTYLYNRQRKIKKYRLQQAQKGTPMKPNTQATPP
UniProt Q8I098: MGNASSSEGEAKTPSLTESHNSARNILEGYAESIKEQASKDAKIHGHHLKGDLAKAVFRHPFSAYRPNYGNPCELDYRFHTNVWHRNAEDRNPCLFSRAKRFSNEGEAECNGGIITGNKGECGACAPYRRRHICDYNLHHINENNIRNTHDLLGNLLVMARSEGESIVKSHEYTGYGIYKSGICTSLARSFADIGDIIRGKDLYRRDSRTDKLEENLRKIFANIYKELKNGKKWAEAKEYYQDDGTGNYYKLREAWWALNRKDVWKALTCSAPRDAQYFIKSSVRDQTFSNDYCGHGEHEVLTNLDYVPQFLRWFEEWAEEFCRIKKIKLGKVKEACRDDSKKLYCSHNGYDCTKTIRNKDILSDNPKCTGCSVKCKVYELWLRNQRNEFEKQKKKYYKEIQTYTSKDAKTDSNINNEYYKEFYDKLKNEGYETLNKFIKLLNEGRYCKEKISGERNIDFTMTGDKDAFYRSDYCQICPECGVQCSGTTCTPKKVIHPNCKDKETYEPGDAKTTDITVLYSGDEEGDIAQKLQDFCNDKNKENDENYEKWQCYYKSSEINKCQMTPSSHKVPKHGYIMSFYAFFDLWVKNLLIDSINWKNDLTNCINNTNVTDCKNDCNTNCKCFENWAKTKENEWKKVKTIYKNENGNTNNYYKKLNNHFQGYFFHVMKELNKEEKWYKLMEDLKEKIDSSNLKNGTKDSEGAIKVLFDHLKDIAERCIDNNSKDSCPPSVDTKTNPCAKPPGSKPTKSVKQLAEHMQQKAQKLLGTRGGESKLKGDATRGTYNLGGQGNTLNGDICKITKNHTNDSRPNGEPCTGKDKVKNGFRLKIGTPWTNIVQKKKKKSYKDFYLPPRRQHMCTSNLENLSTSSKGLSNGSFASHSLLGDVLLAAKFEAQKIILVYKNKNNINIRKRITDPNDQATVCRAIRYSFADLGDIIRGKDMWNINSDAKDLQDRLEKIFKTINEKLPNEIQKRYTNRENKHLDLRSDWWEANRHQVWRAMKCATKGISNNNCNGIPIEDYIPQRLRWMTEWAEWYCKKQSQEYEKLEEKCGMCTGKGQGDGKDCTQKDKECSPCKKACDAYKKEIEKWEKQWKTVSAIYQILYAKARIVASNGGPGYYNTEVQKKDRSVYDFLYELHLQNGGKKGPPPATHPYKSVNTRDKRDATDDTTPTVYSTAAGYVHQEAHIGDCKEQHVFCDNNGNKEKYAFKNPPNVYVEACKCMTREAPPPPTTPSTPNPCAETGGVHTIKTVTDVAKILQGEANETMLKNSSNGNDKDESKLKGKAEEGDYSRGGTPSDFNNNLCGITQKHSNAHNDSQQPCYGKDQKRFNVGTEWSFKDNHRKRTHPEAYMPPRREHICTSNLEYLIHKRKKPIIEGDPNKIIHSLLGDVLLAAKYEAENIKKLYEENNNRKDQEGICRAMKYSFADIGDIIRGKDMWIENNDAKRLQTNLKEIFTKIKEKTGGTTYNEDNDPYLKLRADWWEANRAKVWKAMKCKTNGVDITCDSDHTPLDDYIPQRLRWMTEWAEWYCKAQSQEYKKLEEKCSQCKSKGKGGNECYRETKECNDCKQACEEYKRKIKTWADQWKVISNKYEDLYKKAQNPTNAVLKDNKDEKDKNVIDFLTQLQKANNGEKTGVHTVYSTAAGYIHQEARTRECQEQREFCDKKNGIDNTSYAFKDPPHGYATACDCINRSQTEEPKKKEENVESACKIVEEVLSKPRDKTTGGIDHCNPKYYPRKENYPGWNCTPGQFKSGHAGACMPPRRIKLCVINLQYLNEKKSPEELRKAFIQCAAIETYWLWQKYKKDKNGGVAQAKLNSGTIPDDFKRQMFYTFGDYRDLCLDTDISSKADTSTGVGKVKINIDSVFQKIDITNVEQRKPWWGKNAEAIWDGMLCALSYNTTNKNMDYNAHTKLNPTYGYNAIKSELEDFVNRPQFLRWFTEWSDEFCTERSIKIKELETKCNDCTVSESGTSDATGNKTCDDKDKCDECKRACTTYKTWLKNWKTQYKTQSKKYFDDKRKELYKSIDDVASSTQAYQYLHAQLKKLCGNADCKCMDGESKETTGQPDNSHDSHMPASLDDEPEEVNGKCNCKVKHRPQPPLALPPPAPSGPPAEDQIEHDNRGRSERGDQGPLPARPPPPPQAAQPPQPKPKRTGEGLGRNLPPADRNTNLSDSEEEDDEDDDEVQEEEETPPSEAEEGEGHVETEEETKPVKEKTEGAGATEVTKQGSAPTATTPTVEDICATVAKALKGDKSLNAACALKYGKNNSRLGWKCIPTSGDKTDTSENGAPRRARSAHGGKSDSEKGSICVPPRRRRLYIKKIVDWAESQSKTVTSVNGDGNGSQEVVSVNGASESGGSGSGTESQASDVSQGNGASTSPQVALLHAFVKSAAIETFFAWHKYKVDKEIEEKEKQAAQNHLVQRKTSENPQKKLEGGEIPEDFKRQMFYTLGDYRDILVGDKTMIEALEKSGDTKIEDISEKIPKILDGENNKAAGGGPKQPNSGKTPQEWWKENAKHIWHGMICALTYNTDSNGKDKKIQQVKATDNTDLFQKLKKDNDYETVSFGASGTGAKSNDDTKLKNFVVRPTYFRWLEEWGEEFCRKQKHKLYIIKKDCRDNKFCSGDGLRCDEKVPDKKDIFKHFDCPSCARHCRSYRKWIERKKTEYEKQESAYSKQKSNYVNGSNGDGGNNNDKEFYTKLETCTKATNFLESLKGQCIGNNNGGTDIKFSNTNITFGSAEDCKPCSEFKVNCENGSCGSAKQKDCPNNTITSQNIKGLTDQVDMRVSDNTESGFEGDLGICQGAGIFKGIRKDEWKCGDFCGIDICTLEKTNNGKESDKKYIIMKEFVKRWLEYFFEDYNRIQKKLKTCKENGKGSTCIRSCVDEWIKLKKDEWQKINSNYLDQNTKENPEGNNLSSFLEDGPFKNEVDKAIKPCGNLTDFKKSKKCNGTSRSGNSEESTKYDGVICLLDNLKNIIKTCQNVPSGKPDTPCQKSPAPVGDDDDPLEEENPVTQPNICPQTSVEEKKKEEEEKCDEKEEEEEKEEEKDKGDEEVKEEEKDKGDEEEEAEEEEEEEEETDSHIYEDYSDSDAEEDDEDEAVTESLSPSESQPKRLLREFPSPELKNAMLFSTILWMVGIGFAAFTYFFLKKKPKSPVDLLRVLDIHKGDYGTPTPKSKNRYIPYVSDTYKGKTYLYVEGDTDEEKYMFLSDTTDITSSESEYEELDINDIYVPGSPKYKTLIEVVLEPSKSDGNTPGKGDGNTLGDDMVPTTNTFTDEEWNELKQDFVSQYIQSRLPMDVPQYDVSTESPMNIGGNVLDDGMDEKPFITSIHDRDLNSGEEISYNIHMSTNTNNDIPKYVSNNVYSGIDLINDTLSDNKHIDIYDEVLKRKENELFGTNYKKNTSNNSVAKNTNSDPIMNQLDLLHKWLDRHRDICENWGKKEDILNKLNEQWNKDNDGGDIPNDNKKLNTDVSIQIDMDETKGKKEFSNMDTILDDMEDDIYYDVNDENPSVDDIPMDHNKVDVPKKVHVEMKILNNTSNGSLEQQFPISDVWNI

Results are given in words; binding and its absence hold for the method and conditions named. Binding calls can cover weak binding; strength is not graded here.

Experiment [1] addresses T1, EPCR expressed on the surface of HBMEC (human (endogenous in HBMEC)) (UniProt Q9UNN8).
T1 sequence: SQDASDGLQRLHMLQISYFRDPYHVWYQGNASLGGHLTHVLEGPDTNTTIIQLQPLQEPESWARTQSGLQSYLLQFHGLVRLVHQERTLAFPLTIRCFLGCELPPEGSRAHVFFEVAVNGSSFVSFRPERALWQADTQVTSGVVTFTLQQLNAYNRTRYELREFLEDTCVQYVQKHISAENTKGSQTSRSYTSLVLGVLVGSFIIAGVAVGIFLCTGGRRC
In words: adhesion of infected erythrocytes under flow; microslides seeded with HBMEC, resting or treated with TNFα; pre-incubated with anti-ICAM-1 (40 μg/mL), anti-EPCR (10 μg/mL) or both to tell the receptor.

The target in experiment [2] is ICAM-1 expressed on the surface of HBMEC (human (endogenous in HBMEC)) (UniProt P05362). The experiment is described as above.

For the substance “3D7 PFD1235w PfEMP1 on infected erythrocytes (from UniProt Q8I098)”, the binding entry in experiment [1] and in experiment [2] was “binds” in each case.
Regarding “IT4VAR13 PfEMP1 on infected erythrocytes (from UniProt A3R6S0)”, the binding result is listed as “no binding” in experiment [1] and “binds” in experiment [2].
